From doi:10.1101/2021.01.14.426760

Target: GST-Fos (Kay) (Drosophila)
Assay: pull-down

B1: His-EcR (Ecdysone receptor) (receptor, UniProt P34021 1-878)
chain: MKRRWSNNGGFMRLPEESSSEVTSSSNGLVLPSGVNMSPSSLDSHDYCDQDLWLCGNESGSFGGSNGHGLSQQQQSVITLAMHGCSSTLPAQTTIIPINGNANGNGGSTNGQYVPGATNLGALANGMLNGGFNGMQQQIQNGHGLINSTTPSTPTTPLHLQQNLGGAGGGGIGGMGILHHANGTPNGLIGVVGGGGGVGLGVGGGGVGGLGMQHTPRSDSVNSISSGRDDLSPSSSLNGYSANESCDAKKSKKGPAPRVQEELCLVCGDRASGYHYNALTCEGCKGFFRRSVTKSAVYCCKFGRACEMDMYMRRKCQECRLKKCLAVGMRPECVVPENQCAMKRREKKAQKEKDKMTTSPSSQHGGNGSLASGGGQDFVKKEILDLMTCEPPQHATIPLLPDEILAKCQARNIPSLTYNQLAVIYKLIWYQDGYEQPSEEDLRRIMSQPDENESQTDVSFRHITEITILTVQLIVEFAKGLPAFTKIPQEDQITLLKACSSEVMMLRMARRYDHSSDSIFFANNRSYTRDSYKMAGMADNIEDLLHFCRQMFSMKVDNVEYALLTAIVIFSDRPGLEKAQLVEAIQSYYIDTLRIYILNRHCGDSMSLVFYAKLLSILTELRTLGNQNAEMCFSLKLKNRKLPKFLEEIWDVHAIPPSVQSHLQITQEENERLERAERMRASVGGAITAGIDCDSASTSAAAAAAQHQPQPQPQPQPSSLTQNDSQHQTQPQLQPQLPPQLQGQLQPQLQPQLQTQLQPQIQPQPQLLPVSAPVPASVTAPGSLSAVSTSSEYMGGSAAIGPITPATTSSITAAVTASSTTSAVPMGNGVGVGVGVGGNVSMYANAQTAMALMGVALHSHQEQLIGGVAVKSEHSTTA
For B1, the binding was “binds”.

Results are given in words; binding and its absence hold for the method and conditions named. In cells and extracts the contact can be indirect. Binding can be weak; no strength is given. Sequences can lack the tags named with a protein.
